In US20060222645A1 (LEXICON PHARMACEUTICALS, published 2006):
Numbering of substitutions follows the chain as printed. No constants are given. Whether binding was seen depends on the method and setting. Some results given as binding are weak or reduced against the parent protein; the word gives no strength. Values belong to the binder of their own block, whether it stands above or below them.

Molecular target: T1, N-terminal coiled-coil domain of mouse ANGPTL4 (mouse) (UniProt Q9Z1P8)
T1 sequence: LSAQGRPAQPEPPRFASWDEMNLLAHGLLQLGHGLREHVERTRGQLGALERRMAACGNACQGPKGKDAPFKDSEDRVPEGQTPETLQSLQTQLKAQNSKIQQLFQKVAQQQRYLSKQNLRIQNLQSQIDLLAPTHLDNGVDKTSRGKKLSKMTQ
Assay: ELISA on isolated domain

- binding: binds
B1: monoclonal antibody 14D12 (antibody, V domains shown)
VH: EVKLVESGGGLVKPGGSLKLSCAASGFAFSRYDMSWVRQTPEKRLEWVATISTGGSYTYYPDSVKGRFTISRDNARNTLYLQMGSLRSEDTALYFCVRHEQSTVVPHYPLDYWGQGTSVTVSS
VL: DIVMTQSPATLSVTPGDRVSLSCRASQSIGDYLHWYQQKSHESPRLLIKYASQSISGIPSRFSGSGSGSDFTLSIDSVEPEDVGVYYCQNGHSFPFTFGSGTKLEIKR

- binding: binds
B2: monoclonal antibody 15F2 (antibody, V domains shown)
VH: B1 VH with G54D, V104I
VL: EIQMTQSPSSMSASLGDRITITCQATQDIVKNLNWYQQKPGKPPSFLIHYATELAEGVPSRFSGSGSGSDYSLTISNLESEDFADYYCLQSYDFPYTFGGGTKLEINR
